Consider 2 molecules from publication PMC7316882.

Positions count from the first letter of the chain named. No constants are given. Whether binding was seen depends on the method and setting. Binding seen in cells or lysates may run through a third protein. Some binding calls cover weakened binding; strength is not graded here. Sequences can lack the tags named with a protein.

The test addresses T1, catalytic-dead dUSP36-D-V5 (dUSP36-D^mut) (Drosophila melanogaster) (UniProt Q9VRP5).
T1 sequence: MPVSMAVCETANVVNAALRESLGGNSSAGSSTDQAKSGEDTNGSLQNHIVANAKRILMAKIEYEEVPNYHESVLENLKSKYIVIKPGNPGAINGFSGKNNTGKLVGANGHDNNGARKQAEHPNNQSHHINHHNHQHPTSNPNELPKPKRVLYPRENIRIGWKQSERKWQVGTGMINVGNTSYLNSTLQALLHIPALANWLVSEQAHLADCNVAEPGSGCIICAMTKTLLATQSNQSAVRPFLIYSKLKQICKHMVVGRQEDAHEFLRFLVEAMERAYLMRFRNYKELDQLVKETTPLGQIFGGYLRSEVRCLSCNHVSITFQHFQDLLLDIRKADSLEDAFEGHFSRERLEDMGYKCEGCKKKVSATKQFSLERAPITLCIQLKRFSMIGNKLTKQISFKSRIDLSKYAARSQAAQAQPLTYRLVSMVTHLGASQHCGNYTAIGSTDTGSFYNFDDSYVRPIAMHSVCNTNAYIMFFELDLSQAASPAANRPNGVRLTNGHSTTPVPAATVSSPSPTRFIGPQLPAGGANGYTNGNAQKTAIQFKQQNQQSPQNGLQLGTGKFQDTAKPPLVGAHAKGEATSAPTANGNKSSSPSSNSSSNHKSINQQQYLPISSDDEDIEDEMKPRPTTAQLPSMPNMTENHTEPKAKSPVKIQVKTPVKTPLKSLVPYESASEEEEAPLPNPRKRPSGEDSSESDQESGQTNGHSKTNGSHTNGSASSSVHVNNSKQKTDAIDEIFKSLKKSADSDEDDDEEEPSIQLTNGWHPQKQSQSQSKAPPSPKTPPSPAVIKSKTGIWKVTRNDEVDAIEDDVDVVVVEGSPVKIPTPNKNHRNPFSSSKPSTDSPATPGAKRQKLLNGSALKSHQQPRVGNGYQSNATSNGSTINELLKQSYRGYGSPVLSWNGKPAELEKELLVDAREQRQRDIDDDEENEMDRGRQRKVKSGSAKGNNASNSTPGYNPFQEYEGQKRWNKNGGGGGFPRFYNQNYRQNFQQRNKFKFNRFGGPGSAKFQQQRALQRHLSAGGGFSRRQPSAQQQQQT
As to the kind of experiment: co-IP; Drosophila S2 cells transfected with the tagged proteins for 48 h; lysis and immunoprecipitation in RIPA buffer (50 mM Tris-HCl, 150 mM NaCl, 1 mM EDTA, 1% IGEPAL, 0.5% sodium deoxycholate) with protease inhibitors and PR-619; lysates precleared; antibody (anti-V5 or anti-dMYC) with protein A or G-Sepharose overnight at 4°C; 4 washes; Western blot. A general note: A western blot detects proteins with antibodies after separation by electrophoresis.

B1: wild-type dUSP36-D-Flag (dUSP36-D^WT) (enzyme, UniProt Q9VRP5 1-1038)
chain: T1 sequence with S181C, N439H
Consider B1, for which the binding entry is reported as “binds”.

B2: catalytic-dead dUSP36-D-Flag (dUSP36-D^mut) (enzyme, UniProt Q9VRP5 1-1038)
chain: T1 sequence
Take B2: the binding result is on record as “binds”.
